Taken from: PubChem BioAssay AID743454 (Peter MacCallum Cancer Centre, 2014)
This is a random part of about 18,000 reagents. 450 of them (2.5%) were called active. 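Single biological run; no consistent viability z cut-off exists, so the class columns, not z-scores, define the calls.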

Purpose: 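Genes whose loss kills vorinostat-resistant colon cancer cells under vorinostat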 (primary screen)
Cell system: human HCT116-VR colon cancer cells, selected for vorinostat resistance
Reagents: siRNA pool against human genes, 40 nM siRNA pool
Duration: vorinostat for 24 h, read-out about 72 h after transfection
Treatment: vorinostat at 2.5 µM final
Measured: 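Two measures, CellTiter-Fluor viability and luminescent caspase 3/7 activity, each as fold change against same-plate mock wells, mean of duplicates, then screen-wide robust z-score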
Scale: viability robust z-score: higher = more viable cells than screen typical; caspase robust z-score: higher = more caspase 3/7 activity than screen typical
Hit rule: 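a knock-down is a hit when classed RV1 or RV2 for lowered viability, or CA1 or CA2 for caspase activation; those lethal without drug were dropped; hits were retested singly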

gene knocked down	viability hit class	caspase hit class	viability robust z-score	caspase robust z-score	call
SF3A2 (splicing factor 3a subunit 2)	no change	no change	-1.92	-0.23	inactive
BBS9 (Bardet-Biedl syndrome 9)	no change	no change	0.08	-0.52	inactive
GPC4 (glypican 4)	no change	no change	-0.8	2.41	inactive
TMEM126B (transmembrane protein 126B)	no change	no change	1.09	-0.46	inactive
TMEM219 (transmembrane protein 219)	no change	no change	-2.49	2.4	inactive
ARPP21 (cAMP regulated phosphoprotein 21)	no change	no change	-1.29	-0.22	inactive
DPP7 (dipeptidyl peptidase 7)	no change	no change	-0.53	-0.91	inactive
ATP1B1 (ATPase Na+/K+ transporting subunit beta 1)	no change	no change	0.43	-1.09	inactive
R3HDM1 (R3H domain containing 1)	no change	no change	-1.65	1.62	inactive
DMRT2 (doublesex and mab-3 related transcription factor 2)	no change	no change	0.55	-0.98	inactive
TOP2A (DNA topoisomerase II alpha)	no change	no change	-2.58	1.55	inactive
CTDP1 (CTD phosphatase 1)	no change	no change	0.09	0.3	inactive
TLL1 (tolloid like 1)	no change	no change	-0.64	0.97	inactive

Sorted by “viability robust z-score” (descending): 2 of the entries above
gene knocked down	viability hit class	caspase hit class	viability robust z-score	caspase robust z-score	call
TMEM126B (transmembrane protein 126B)	no change	no change	1.09	-0.46	inactive
GPC4 (glypican 4)	no change	no change	-0.8	2.41	inactive

Next entries:
gene knocked down	viability hit class	caspase hit class	viability robust z-score	caspase robust z-score	call
NCAPH2 (non-SMC condensin II complex subunit H2)	no change	no change	0.64	-1.18	inactive
PCBP4 (poly(rC) binding protein 4)	no change	no change	0.94	-0.55	inactive
YPEL3 (yippee like 3)	no change	no change	1.13	-0.68	inactive
ZNF532 (zinc finger protein 532)	no change	no change	-2.21	-1.72	inactive
UXT (ubiquitously expressed prefoldin like chaperone)	no change	no change	-1.16	0.43	inactive
ABCA1 (ATP binding cassette subfamily A member 1)	no change	no change	0.77	-0.08	inactive
PTPRB (protein tyrosine phosphatase receptor type B)	no change	no change	2.21	-0.2	inactive
MAPK10 (mitogen-activated protein kinase 10)	no change	no change	-0.12	-0.99	inactive
ARHGAP44 (Rho GTPase activating protein 44)	no change	no change	0.04	2.15	inactive
SAT2 (spermidine/spermine N1-acetyltransferase family member 2)	no change	no change	1.21	-1.02	inactive
